Patent US20060003326
Construct, isoform or probe ends are uncertain for at least one entry.

Amino acid sequences for entries named in this document (tags omitted).
UniProt P01148, whole entry, looked up, tested part not stated: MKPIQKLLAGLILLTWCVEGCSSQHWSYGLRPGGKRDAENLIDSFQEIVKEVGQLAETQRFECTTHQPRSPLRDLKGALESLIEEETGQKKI

Target: GnRH I (gonadotropin releasing hormone, gonadoliberin, decapeptide) (UniProt P01148)
Experiment: activity in cells
Conditions: L-DNA (all L-nucleotides), GnRH (2 nM) preincubated 20 min with spiegelmer, Ca2+ release in CHO cells expressing human GnRH receptor (FLIPR), single-stranded DNA, mirror-image nucleic acid

| Sequence | IC50 (5'-aminohexyl linker with branched 40 kDa PEG, variant of GnRH DNA spiegelmer (non-PEGylated)) [nM] | IC50 [nM] |
| --- | --- | --- |
| CCAAGCTTGCGTAAGCAGTCTCCTCTCAGGGGAGGTTGGGCGGTGCGTAAGCACCGGTTTGCAGGGG [PEG-GnRH DNA spiegelmer] | 30 |  |
| CCAAGCTTGCGTAAGCAGTCTCCTCTCAGGGGAGGTTGGGCGGTGCGTAAGCACCGGTTTGCAGGGG [GnRH DNA spiegelmer (non-PEGylated)] |  | 20 |
